PubChem BioAssay AID1159579, Peter MacCallum Cancer Centre, 2015
This is a random part of about 2,000 reagents. Over the whole deposit, 549 (27%) got an active call. 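Some migration ratios are negative; siRNAs with too few cells are inactive whatever their migration ratio.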 A number with no mark means an inactive call. The numbers tell different reagents against one gene apart. Not given: the time to read-out.

Aim: 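Follow-up screen seeking modulators of motility in lymphatic endothelial cells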 (follow-up of hits)
System: human dermal lymphatic endothelial cells
Reagent: single siRNA against human genes, 25 nM
Read-out: 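High content images of wound closure area and cell nuclei counts, each the average of two wells, expressed against mock transfection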
Reading the numbers: migration relative to mock: higher = more migration into the scratch; mean nuclei count: higher = more cells remaining
Rule for the call: 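a ratio of at most 0.6 or at least 1.3 marks altered migration and an active call; a mean nuclei count under 3300 forces an inactive call regardless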
Calls: active = migration changed (impaired or accelerated); inactive = no migration change, or too few cells

migration relative to mock | migration and cell number class | mean nuclei count | target gene | reagent
0.88 | no change in migration or cell number | 6298 | RPS6KA3 | 1
1.02 | no change in migration or cell number | 6370 | RPS6KA3 | 2
1 | no change in migration or cell number | 5700 | RPS6KA3 | 3
0.96 | no change in migration or cell number | 6821 | RPS6KA3 | 4
0.57 (active) | migration reduced | 6493 | CPN2 | 1
0.61 | no change in migration or cell number | 6468 | CPN2 | 2
0.62 | no change in migration or cell number | 6103 | CPN2 | 3
0.74 | no change in migration or cell number | 6347 | CPN2 | 4
0.99 | no change in migration or cell number | 5814 | GLIPR1 | 1
0.98 | no change in migration or cell number | 6590 | GLIPR1 | 2
1.18 | no change in migration or cell number | 6614 | GLIPR1 | 3
1.38 (active) | migration increased | 5954 | GLIPR1 | 4
0.9 | no change in migration or cell number | 5433 | BNIP1 | 1
0.43 (active) | migration reduced | 3362 | BNIP1 | 2
0.3 (active) | migration reduced | 3622 | BNIP1 | 3
1.01 | no change in migration or cell number | 5794 | BNIP1 | 4
0.57 (active) | migration reduced | 5041 | SFSWAP | 1
0.72 | no change in migration or cell number | 5254 | SFSWAP | 2
1 | no change in migration or cell number | 5872 | SFSWAP | 3
1.09 | no change in migration or cell number | 6496 | SFSWAP | 4
0.44 (active) | migration reduced | 5570 | TNFRSF8 | 1
0.94 | no change in migration or cell number | 7046 | TNFRSF8 | 2
0.57 (active) | migration reduced | 4825 | TNFRSF8 | 3
0.39 (active) | migration reduced | 3709 | TNFRSF8 | 4
0.73 | no change in migration or cell number | 4768 | DRC3 | 1
0.7 | no change in migration or cell number | 6278 | DRC3 | 2
0.82 | no change in migration or cell number | 6120 | DRC3 | 3
0.9 | no change in migration or cell number | 4539 | DRC3 | 4
1.06 | no change in migration or cell number | 5483 | STC2 | 1
1.17 | no change in migration or cell number | 5086 | STC2 | 2
1.02 | no change in migration or cell number | 5760 | STC2 | 3
1.1 | no change in migration or cell number | 5345 | STC2 | 4
0.3 (active) | migration reduced | 3396 | SGIP1 | 1
1.24 | no change in migration or cell number | 6681 | SGIP1 | 2
0.83 | no change in migration or cell number | 5239 | SGIP1 | 3
0.88 | no change in migration or cell number | 4922 | SGIP1 | 4
-0.45 (active) | migration reduced | 4178 | PLOD1 | 1
0.83 | no change in migration or cell number | 6450 | PLOD1 | 2
1.08 | no change in migration or cell number | 6223 | PLOD1 | 3
0.93 | no change in migration or cell number | 7436 | PLOD1 | 4
1.04 | no change in migration or cell number | 6489 | CT47A2 | 1
0.6 (active) | migration reduced | 5386 | CT47A2 | 2
0.65 | no change in migration or cell number | 5598 | CT47A2 | 3
0.88 | no change in migration or cell number | 5751 | CT47A2 | 4
0.74 | no change in migration or cell number | 5925 | ZNF672 | 1
1.02 | no change in migration or cell number | 6314 | ZNF672 | 2
-0.48 | too few cells; migration not scored | 2697 | ZNF672 | 3
-0.02 (active) | migration reduced | 3646 | ZNF672 | 4
0.58 (active) | migration reduced | 5768 | SLC22A25 | 1
0.5 (active) | migration reduced | 5326 | SLC22A25 | 2
0.45 (active) | migration reduced | 4200 | SLC22A25 | 3
-1.16 | too few cells; migration not scored | 3104 | SLC22A25 | 4
0.72 | no change in migration or cell number | 6792 | MAPK11 | 1
0.53 (active) | migration reduced | 6524 | MAPK11 | 2
0.66 | no change in migration or cell number | 5495 | MAPK11 | 3
0.78 | no change in migration or cell number | 6794 | MAPK11 | 4
0.27 (active) | migration reduced | 5878 | KLK5 | 1
0.78 | no change in migration or cell number | 7461 | KLK5 | 2
0.66 | no change in migration or cell number | 6240 | KLK5 | 3
-0.4 | too few cells; migration not scored | 2144 | KLK5 | 4
0.06 (active) | migration reduced | 3842 | GNAS | 1
0 (active) | migration reduced | 4314 | GNAS | 2
0.67 | no change in migration or cell number | 4448 | GNAS | 3
0.2 (active) | migration reduced | 5409 | GNAS | 4
1 | no change in migration or cell number | 5833 | CHM | 1
0.82 | no change in migration or cell number | 6240 | CHM | 2
0.68 | no change in migration or cell number | 5965 | CHM | 3
0.75 | no change in migration or cell number | 5535 | CHM | 4
0.22 (active) | migration reduced | 4792 | HOXC5 | 1
0.06 (active) | migration reduced | 4000 | HOXC5 | 2
0.92 | no change in migration or cell number | 6020 | HOXC5 | 3
0.52 (active) | migration reduced | 6646 | HOXC5 | 4
0.8 | no change in migration or cell number | 4181 | STOX2 | 1
0.92 | no change in migration or cell number | 5634 | STOX2 | 2
1.05 | no change in migration or cell number | 5234 | STOX2 | 3
1.02 | no change in migration or cell number | 6344 | STOX2 | 4
0.87 | no change in migration or cell number | 5542 | ZNF559 | 1
1.05 | no change in migration or cell number | 6426 | ZNF559 | 2
0.83 | no change in migration or cell number | 5659 | ZNF559 | 3
0.7 | no change in migration or cell number | 4622 | ZNF559 | 4
0.55 (active) | migration reduced | 6128 | SF3B1 | 1
0.28 (active) | migration reduced | 4686 | SF3B1 | 2
-0.12 | too few cells; migration not scored | 2692 | SF3B1 | 3
0.29 (active) | migration reduced | 4282 | SF3B1 | 4
0.51 (active) | migration reduced | 5794 | CASK | 1
0.76 | no change in migration or cell number | 6816 | CASK | 2
1 | no change in migration or cell number | 6424 | CASK | 3
0.44 (active) | migration reduced | 5996 | CASK | 4

Part of the list above, reduced to “migration and cell number class”:
SLC22A25 #4 = too few cells; migration not scored
MAPK11 #1 = no change in migration or cell number
MAPK11 #2 = migration reduced (active)
MAPK11 #3 = no change in migration or cell number
MAPK11 #4 = no change in migration or cell number
KLK5 #1 = migration reduced (active)
KLK5 #2 = no change in migration or cell number
KLK5 #3 = no change in migration or cell number
